No constants are given. Whether binding was seen depends on the method and setting. Some entries that bind do so weakly or less than the wild type.

The chains behind the UniProt entries cited, without tags or fusion partners. Where a name states a change or a piece, a line headed by the entry shows the natural chain unless it says otherwise. A line that says so, or that is headed by a name, gives the form on record, which may keep a tag or linker.
rat FGFR1 (IIIC isoform) fused to the N-terminal of hexahistidine, expressed in transfected HEK293 cells (Q04589, form named): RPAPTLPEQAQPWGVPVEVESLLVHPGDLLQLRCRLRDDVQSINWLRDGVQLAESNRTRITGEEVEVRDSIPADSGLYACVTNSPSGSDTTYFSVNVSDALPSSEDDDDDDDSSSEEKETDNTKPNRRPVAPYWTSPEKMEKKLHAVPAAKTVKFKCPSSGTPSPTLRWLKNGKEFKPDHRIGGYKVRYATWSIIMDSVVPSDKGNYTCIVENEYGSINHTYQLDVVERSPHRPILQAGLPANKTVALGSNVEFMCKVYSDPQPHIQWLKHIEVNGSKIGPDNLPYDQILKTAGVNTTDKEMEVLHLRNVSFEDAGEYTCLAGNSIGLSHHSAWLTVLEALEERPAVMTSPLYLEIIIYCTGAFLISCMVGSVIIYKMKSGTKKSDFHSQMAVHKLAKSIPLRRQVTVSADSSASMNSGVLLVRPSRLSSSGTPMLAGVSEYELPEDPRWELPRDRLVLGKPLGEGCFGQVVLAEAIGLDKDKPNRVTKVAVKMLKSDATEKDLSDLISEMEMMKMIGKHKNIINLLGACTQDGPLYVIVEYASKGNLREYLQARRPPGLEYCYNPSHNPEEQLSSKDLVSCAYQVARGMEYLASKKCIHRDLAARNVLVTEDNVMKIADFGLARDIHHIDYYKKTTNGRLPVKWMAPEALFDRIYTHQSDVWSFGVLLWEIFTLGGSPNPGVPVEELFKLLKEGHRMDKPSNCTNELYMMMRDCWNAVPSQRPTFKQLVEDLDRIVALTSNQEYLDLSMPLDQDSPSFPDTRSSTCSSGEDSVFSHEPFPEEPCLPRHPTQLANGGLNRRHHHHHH

The record followed here is patent US20090105149A1, “Compounds comprising lpa” (ENKAM PHARMACEUTICALS A/S, priority 2003, published 2009).

In this test the target is rat FGFR1 (IIIC isoform) fused to the N-terminal of hexahistidine, expressed in transfected HEK293 cells (rat) (UniProt Q04589). The test can be described thus: HEK293 cells transfected with rat FGFR1 (IIIC)-His6, stimulated with EFL monomer; the only readout described is receptor phosphorylation.

For NIEVWVEAENALGKKV [EFL peptide (peptide of SEQ ID NO: 2), individual monomer], the binding entry was “binds”.
